Test results reported in patent EP0195316A1, “Quinolonecarboxylic acid derivatives” (KYORIN PHARMACEUTICAL CO., LTD., priority 1985, dated 1986).
Marks after values point to notes of the source that are not given here.

What was measured:
[1] = in vivo; conditions: mouse, iv
[2] = test system: nalidixic acid-resistant Salmonella typhimurium TA98 strain (nal^r); experiment: Mutagenicity, reverse mutation assay
Description: As for antibacterial agents, assessment of mutagenicity using bacteria is somewhat difficult because of their activity on the test bacteria.

**Q.** Which LD50 [1] does the source give for `O=C(O)c1cn(C2CC2)c2cc(N3CCNCC3)c(F)cc2c1=O` [CFLX, Ciprofloxacin] here?
**A.** 231 mg/kg

**Q.** What about the “His^+ revertants per plate” value ([2]; 0.05 µg/plate, S9-mix +) of the same molecule?
**A.** 47

**Q.** And the “His^+ revertants per plate” value ([2]; 0.05 µg/plate, S9-mix -)?
**A.** 28

**Q.** And the “His^+ revertants per plate” value ([2]; 0.1 µg/plate, S9-mix +)?
**A.** 76

**Q.** What about the “His^+ revertants per plate” value ([2]; 0.1 µg/plate, S9-mix -) of the same molecule?
**A.** 44

**Q.** What about the “His^+ revertants per plate” value ([2]; 0.5 µg/plate, S9-mix +) of the same molecule?
**A.** 103

**Q.** And the “His^+ revertants per plate” value ([2]; 0.5 µg/plate, S9-mix -)?
**A.** 47

**Q.** What about the “His^+ revertants per plate” value ([2]; 1.0 µg/plate, S9-mix +) of the same molecule?
**A.** 30*

**Q.** What about the “His^+ revertants per plate” value ([2]; 1.0 µg/plate, S9-mix -) of the same molecule?
**A.** 55

**Q.** And the “His^+ revertants per plate” value ([2]; 5.0 µg/plate, S9-mix +)?
**A.** 0*

**Q.** And the “His^+ revertants per plate” value ([2]; 5.0 µg/plate, S9-mix -)?
**A.** 0*

**Q.** What about the “His revertant colonies compared with the solvent control” value ([2]; within measurable concentration, with and without the drug metabolic activation) of the same molecule?
**A.** 2 fold
